Data as given in PMC8102002.
Construct, isoform or probe ends are uncertain for at least one entry. Negatives hold for the conditions tested. For some of these results: At least one verdict rests on a figure or table, not on a statement of the authors.

Key:
[1] = system: MBP-LA (LANCEOLATE, CIN-TCP transcription factor); assay: competition with a labelled probe; details: 1x binding buffer (LightShift kit), 50 ng/uL poly(dI/dC), 2.5% glycerol, 0.05% NP-40, 50 fmol probe, 3.75 ug BSA, room temperature 30-40 min, 6% native PAGE, recombinant protein, protein details: MBP
[2] = system: MBP-LA (LANCEOLATE, CIN-TCP transcription factor); assay: EMSA; details: 1x binding buffer (LightShift kit), 50 ng/uL poly(dI/dC), 2.5% glycerol, 0.05% NP-40, 50 fmol probe, 3.75 ug BSA, room temperature 30-40 min; 6% native PAGE; recombinant protein; protein details: MBP; label: 3' biotin (end labeled)
[3] = system: MBP (empty); assay: EMSA; details: 1x binding buffer (LightShift kit), 50 ng/uL poly(dI/dC), 2.5% glycerol, 0.05% NP-40, 50 fmol probe, 3.75 ug BSA, room temperature 30-40 min; 6% native PAGE; recombinant protein; label: 3' biotin (end labeled)

Sequence | binding result [2] | also measured
AAAAAAGGTAAATATATAAATTATGTAGGAACTCAAAAAGATTTTGTAAAGATTAGACAA (double strand) [TRR3/4-1m competitor] | – | binding result ([1]; vs biotinylated WT TRR3/4 probe): no binding
AAGAATGGGAAGCAGCTAGATTTGGTCCCCATTATTAAGATTTAGCAAGA (double strand) [TRR16/17-1 probe] | binds | –
CTATTAGATTACACTTGTAAAACGTGTGGTCCAACATAGAGAAATGGTAATCTTTTTC / AAAAAGATTACCATTTCTCTATTGTTGGACCACACGTTTTACAAGTGTAATCTAATAGC [TRR8/9-1 probe] | binds | –
AAAAAAGGTAAATATATAAATTATGTAGGACCACAAAAAGATTTTGTAAAGATTAGACAA (double strand) [TRR3/4-1 unlabeled competitor] | – | binding result ([1]; unlabeled, dose-dependent, vs biotinylated TRR3/4 probe): binds
AAAAAAGGTAAATATATAAATTATGTAGGACCACAAAAAGATTTTGTAAAGATTAGACAA (double strand) [TRR3/4-1 probe] | binds | binding result [3]: no binding
AAAAAAGGTAAATATATAAATTATGTAGGAACTCAAAAAGATTTTGTAAAGATTAGACAA (double strand) [TRR3/4-1m probe] | no binding | –
